In patent publication US20090098106A1:
These are yes or no findings as the source states them, for the method shown. For some assays here: Binding seen in cells or lysates may run through a third protein. Some binding calls cover weakened binding; strength is not graded here. One block for each substance: values may come before it.

Protein sequences, listed by entry. Tags and fused reporters are not part of them. Lines headed by an entry give the natural chain unless they say otherwise; changes in a name come on top. Chains listed by the source or under a name are the forms on record and can include a tag or linker.
UniProt P25788: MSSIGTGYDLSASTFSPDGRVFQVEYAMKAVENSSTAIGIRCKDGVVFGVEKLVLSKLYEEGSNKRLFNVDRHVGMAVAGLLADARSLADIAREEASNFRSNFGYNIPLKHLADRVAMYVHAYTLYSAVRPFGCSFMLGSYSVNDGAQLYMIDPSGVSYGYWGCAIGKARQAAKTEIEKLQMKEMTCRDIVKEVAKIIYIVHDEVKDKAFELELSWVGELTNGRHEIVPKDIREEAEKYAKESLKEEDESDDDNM
HC8 SS 243,250AA mutant (P25788, form named): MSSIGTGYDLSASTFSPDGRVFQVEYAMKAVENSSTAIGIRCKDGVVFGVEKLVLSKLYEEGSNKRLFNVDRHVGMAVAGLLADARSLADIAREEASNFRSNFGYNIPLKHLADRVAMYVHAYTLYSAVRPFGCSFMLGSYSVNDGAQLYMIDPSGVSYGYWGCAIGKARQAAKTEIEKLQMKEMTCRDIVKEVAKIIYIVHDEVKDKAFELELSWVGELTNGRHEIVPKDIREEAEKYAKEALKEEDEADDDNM
UniProt P25786: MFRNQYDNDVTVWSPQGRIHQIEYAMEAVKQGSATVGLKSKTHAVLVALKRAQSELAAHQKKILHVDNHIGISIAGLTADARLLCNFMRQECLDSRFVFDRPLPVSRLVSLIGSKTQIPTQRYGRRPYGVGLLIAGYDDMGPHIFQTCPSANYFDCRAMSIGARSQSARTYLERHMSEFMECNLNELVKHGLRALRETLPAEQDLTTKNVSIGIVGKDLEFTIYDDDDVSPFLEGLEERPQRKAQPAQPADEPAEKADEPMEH
UniProt Q9WUL6: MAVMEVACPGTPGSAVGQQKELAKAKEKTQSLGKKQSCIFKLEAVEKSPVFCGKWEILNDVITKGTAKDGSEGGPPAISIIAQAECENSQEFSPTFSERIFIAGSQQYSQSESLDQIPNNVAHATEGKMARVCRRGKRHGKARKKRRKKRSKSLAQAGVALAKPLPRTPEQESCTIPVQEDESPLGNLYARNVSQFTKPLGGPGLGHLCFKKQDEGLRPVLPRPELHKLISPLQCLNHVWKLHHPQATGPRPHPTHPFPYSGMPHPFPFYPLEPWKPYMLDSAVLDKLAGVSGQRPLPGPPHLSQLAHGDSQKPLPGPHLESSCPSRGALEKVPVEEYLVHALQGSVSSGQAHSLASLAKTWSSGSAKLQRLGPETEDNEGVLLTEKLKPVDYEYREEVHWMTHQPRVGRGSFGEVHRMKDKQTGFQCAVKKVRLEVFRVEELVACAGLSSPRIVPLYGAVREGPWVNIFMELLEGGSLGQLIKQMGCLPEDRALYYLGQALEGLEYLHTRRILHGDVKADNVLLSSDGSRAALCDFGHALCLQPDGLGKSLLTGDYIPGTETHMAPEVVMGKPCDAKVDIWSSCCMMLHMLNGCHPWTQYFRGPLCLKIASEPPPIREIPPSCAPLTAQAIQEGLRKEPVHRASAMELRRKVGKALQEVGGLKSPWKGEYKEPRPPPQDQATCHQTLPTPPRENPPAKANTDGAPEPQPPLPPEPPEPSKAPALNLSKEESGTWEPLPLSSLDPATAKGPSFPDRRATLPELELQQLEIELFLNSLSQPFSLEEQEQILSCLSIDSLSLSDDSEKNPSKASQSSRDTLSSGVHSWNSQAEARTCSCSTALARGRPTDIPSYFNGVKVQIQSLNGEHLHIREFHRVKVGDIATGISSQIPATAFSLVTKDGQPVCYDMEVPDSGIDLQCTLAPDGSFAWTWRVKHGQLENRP
UniProt Q99558: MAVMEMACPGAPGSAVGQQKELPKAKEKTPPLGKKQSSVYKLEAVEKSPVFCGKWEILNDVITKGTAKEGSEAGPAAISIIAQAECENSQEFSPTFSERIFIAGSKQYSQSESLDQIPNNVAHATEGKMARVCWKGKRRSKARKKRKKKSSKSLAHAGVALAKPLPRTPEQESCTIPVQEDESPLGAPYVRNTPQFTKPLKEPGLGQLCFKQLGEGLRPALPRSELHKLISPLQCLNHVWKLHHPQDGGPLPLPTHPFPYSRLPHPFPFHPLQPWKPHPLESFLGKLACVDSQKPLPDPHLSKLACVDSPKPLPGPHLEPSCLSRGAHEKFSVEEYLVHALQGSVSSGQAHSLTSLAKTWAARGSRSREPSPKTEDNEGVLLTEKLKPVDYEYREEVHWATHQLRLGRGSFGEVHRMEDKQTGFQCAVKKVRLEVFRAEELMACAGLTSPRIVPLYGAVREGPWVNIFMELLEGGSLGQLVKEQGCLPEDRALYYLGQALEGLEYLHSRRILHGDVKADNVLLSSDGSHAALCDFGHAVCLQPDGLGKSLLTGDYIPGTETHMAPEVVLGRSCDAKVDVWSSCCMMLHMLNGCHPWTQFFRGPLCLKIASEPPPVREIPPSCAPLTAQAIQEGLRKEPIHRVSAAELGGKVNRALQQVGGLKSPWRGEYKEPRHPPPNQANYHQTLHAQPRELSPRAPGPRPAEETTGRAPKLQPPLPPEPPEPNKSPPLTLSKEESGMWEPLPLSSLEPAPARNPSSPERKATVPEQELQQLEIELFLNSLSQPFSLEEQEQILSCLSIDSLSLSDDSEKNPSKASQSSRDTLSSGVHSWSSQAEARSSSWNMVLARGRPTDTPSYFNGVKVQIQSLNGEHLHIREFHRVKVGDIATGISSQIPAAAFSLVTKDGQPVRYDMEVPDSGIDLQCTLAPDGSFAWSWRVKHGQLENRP

Legend:
[1] = target: HC8 (α7) subunit of the human 20S proteasome (human) (UniProt P25788); experiment: co-immunoprecipitation from HeLa cells, Western blot
[2] = target: HC8 (α7) subunit of the human 20S proteasome (human) (UniProt P25788); experiment: co-immunoprecipitation from HeLa cells with anti-NIK monoclonal antibody, Western blot
C2 proteasomal component = C2 proteasomal component (UniProt P25786); experiment: proteasomes precipitated from HeLa cell lysates with anti-C2 antibody, Western blot
[3] = target: HC8 SS 243,250AA mutant (human) (UniProt P25788); experiment: co-immunoprecipitation from 293T cells, Western blot
TRAF2 = target: T1, TRAF2 (UniProt Q12933); experiment: yeast two-hybrid, β-gal colour, strain SFY526 (bait NIK-C-ter, prey TRAF2)
T1 sequence (looked up): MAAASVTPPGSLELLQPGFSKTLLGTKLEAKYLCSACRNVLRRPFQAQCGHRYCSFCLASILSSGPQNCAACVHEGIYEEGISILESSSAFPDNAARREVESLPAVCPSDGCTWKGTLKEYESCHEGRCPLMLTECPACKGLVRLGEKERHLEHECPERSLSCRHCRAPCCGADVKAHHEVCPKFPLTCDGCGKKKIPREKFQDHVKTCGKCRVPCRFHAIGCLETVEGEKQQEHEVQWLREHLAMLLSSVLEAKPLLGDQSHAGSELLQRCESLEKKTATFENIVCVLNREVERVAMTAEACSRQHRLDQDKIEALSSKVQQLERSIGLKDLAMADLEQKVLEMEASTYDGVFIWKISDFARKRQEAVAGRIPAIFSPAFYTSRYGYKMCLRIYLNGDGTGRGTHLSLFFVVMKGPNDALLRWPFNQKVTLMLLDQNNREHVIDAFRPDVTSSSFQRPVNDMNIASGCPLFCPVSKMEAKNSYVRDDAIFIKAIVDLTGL

binding [1]: binds
binding [2]: binds
Substance: mouse NIK, full length (from UniProt Q9WUL6 1-942) (enzyme)

binding (C2 proteasomal component): binds
binding [3]: binds
Substance: NF-κB inducing kinase (NIK), human, full length (from UniProt Q99558 1-947) (enzyme)

binding (TRAF2): binds
Substance: NIK-C-terminus (amino acids 624-947 of SEQ ID NO: 5) (from UniProt Q99558 624-947)
